Measured values taken from patent publication US20220332780A1.
These are yes or no findings as the source states them, for the method shown. Some entries that bind do so weakly or less than the wild type.

By UniProt entry, the sequences of proteins in these tests, tags left out. Where a name states a change or a piece, a line headed by the entry shows the natural chain unless it says otherwise.
UniProt Q13261: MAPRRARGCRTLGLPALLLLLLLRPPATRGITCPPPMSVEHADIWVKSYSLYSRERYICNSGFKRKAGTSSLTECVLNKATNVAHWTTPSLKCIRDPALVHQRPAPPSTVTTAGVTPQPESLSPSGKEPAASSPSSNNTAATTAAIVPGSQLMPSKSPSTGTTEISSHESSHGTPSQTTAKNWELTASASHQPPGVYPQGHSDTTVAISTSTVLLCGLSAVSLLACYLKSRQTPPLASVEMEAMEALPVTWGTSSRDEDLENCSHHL

Assays:
[1] = target: IL15-293 (ACZ-regulated membrane-bound IL15 linked to the CA2 (M1del, L156H) DRD) (human); assay: flow cytometry of transduced cord blood NK cells, stained with IL15Ra-Fc and anti-CD56 antibody
[2] = target: IL15-293 (ACZ-regulated membrane-bound IL15 linked to the CA2 (M1del, L156H) DRD) (human); assay: flow cytometry of transduced TIL, co-stained with anti-IL15 and IL15Ra-Fc (IL15+IL15Ra-Fc+ double positive population)
[3] = target: IL15-293 (ACZ-regulated membrane-bound IL15 linked to the CA2 (M1del, L156H) DRD) (human); assay: flow cytometry of transduced human T cells from mouse blood on day 25, stained with IL15Ra-Fc and fluorochrome conjugated anti-human IgG antibody
[4] = target: IL15-294 (constitutive membrane-bound IL15, variant B7-1 tail) (human); assay: as above
[5] = target: IL15-295 (ACZ-regulated membrane-bound IL15, variant B7-1 tail, linked to the CA2 (M1del, L156H) DRD) (human); assay: as above

binding [1]: binds
binding [2]: binds
binding [3]: binds
binding [4]: binds
binding [5]: binds
Substance: IL15Ra-Fc (recombinant protein comprised of extracellular domain of IL15Ra fused to human IgG1 Fc domain) (from UniProt Q13261 31-205) (Fc fusion)
